Measured values: patent US20070092467A1, “Oxyacetamide compounds useful for stimulating or inducing the growth and/or retarding the loss of keratin fibers” (L'OREAL, priority 2004, published 2007)
Some entries share one result that the patent states for a list of compounds.

Biological target: T1, PGF synthase (Homo sapiens, UniProt P42330)
T1 construct: made in house
T1 sequence (P42330 1-323): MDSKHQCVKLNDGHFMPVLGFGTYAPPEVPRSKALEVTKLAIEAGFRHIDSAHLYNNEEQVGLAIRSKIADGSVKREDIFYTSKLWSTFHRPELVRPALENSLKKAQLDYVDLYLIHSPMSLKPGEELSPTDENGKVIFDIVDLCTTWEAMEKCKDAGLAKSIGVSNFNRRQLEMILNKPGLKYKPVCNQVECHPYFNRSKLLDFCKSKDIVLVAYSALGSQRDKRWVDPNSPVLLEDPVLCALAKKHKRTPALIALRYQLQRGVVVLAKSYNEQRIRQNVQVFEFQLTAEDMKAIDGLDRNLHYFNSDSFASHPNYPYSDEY
Test: Test on PGF synthase (spectrophotometric, 340 nm, maximum reaction rate)
Type: biochemical
Settings: compound at 100 μM
Protocol: For the purposes of the test, this suspension is thawed and stored in ice.
0.950 mL of this buffer (brought to 37° C. beforehand) is introduced into the cuvette of a spectrophotometer (Perkin-Elmer, Lambda 2) thermostatically maintained at 37° C., the measuring wavelength of which is set at 340 nm. 0.05 mL of enzymatic suspension at 37° C. is introduced into the cuvette concomitantly with the recording (corresponding to a reduction in the optical density at 340 nm). The maximum reaction rate is recorded.

Compound | inhibition of the enzyme PGFS at 100 μM
CC(C)(C)c1ccc(OCC(=O)NC[Si](C)(C)C)cc1 [Compound 17, 2-(4-tert-Butyl-phenoxy)-N-trimethylsilanylmethyl-acetamide] | do not inhibit
C[Si](C)(C)CNC(=O)COCc1ccccc1 [Compound 18, 2-Benzyloxy-N-trimethylsilanylmethyl-acetamide] | do not inhibit
C[Si](C)(C)CNC(=O)COc1ccccc1 [Compound 19, 2-Phenoxy-N-trimethylsilanylmethyl-acetamide] | do not inhibit
